# Assay results as given in US11753408B2, “Compounds and method for blocking transmission of malarial parasite” (The United States of America, as represented by the …, priority 2016, dated 2023).
# Read-outs that look alike come from different tables or passages of the source. For at least one compound, name, drawing or mass did not settle the structure.
# Legend:
# [1] = system: Stage III-V gametocytes (blood stage P. falciparum parasites); assay: In vitro drug activity on gametocytes (AlamarBlue viability assay); assay type: cell-based, Plasmodium falciparum; settings: read-out: Gametocyte EC50
# Description: (§1) Cell culture. Asexual parasites of P. falciparum strain 3D7 were cultured as described previously [Trager W, et al., Journal of Parasitology 2005, 91: 484-486], Stage III-V gametocytes were selected and enriched with 3-day treatment with 50 mM N-acetylglucosamine (NAG) and the following Percoll density gradient centrifugation after gametocyte production [Tanaka T Q, et al., Molecular and Biochemical Parasitology, 2011, 111: 160-163], Gametocytes of HB3 and Dd2 strains were produced and then set up for assay in a similar process. HepG2 cells (ATCC, cat. no. 77400) were cultured in 175-cm^2 tissue culture flasks with 30 ml growth medium at 37° C. in a 5% CO2 humidified atmosphere. Growth medium was made with Dulbecco's Modified Eagle Medium with 10% fetal bovine serum (FBS). Growth medium was replaced every other day and cells were passed at 75% confluence.
# Compound screening experiments were performed as previously described [Tanaka T Q et al., Molecular and Biochemical Parasitology, 2013, 3188: 20-25], Briefly, 2.5 μl/well incomplete medium was dispensed into each well of 1,536-well plates using the Multidrop Combi followed by 23 nl compound transferring using the NX-TR Pintool (WAKO Scientific Solutions, San Diego, Calif.). 2.5 μl/well of gametocytes was dispensed with a seeding density of 20,000 cells/well using the Multidrop Combi. The assay plates were incubated for 72 h at 37° C. with 5% CO2. After addition of 5 μl/well of 2× AlamarBlue dye (Life Technologies, cat. no. DALI 100), the plates were incubated for 24 h at 37° C. with 5% CO2 and were read in a fluorescence detection mode (Ex=525 nm, Em=598 nm) on a ViewLux plate reader (PerkinElmer).
# Stage III-V gametocytes (blood stage P. falciparum parasites) were enriched with treatment with 50 mM N-acetylglucosamine (NAG) and Percoll density gradient centrifugation as described previously^1. Briefly, 2.5 μl/well incomplete medium was dispensed into each well of 1,536-well plates using the Multidrop Combi followed by 23 nl compound transfer using the NX-TR Pintool (WAKO Scientific Solutions, San Diego, Calif.). Then, 2.5 μl/well of gametocytes was dispensed with a seeding density of 20,000 cells/well using the Multidrop Combi. The assay plates were incubated for 72 h at 37° C. with 5% CO2. After addition of 5 μl/well of 2× AlamarBlue dye (Life Technologies, cat. no. DALI 100), the plates were incubated for 24 h at 37° C. with 5% CO2 and then were read in a fluorescence detection mode (Ex=525 nm, Em=598 nm) on a ViewLux plate reader (PerkinElmer).
# [2] = system: Asexual parasites of P. falciparum strain 3D7; assay: In vitro drug activity on asexual parasites (SYBR Green assay); assay type: cell-based, Plasmodium falciparum
# Description: as §1
# Asexual parasites of P. falciparum strain 3D7 were cultured as described previously (Trager, W. et al., J. Parasitol. 2005, 91(3): 484-486). Drug activity on asexual stage parasites was tested using a SYBR Green assay as described previously (Eastman, R. T. et al., Antimicrob. Agents Chemother. 2013, 57(1): 425-435; Smilkstein, M. et al., Antimicrob. Agents Chemother. 2004, 48(5): 1803-1806). […] The fluorescence of each well was measured at 520 nm following excitation at 490 nm using a FLUOstar Optima™ microplate reader (BMG Labtech).
# [3] = P. falciparum stage III-V gametocytes, 72 h incubation, AlamarBlue
Compound,EC50 [1] [µM],"EC50 [1, 3] [µM]",other results
O=C(O)c1cc(Cl)ccc1-c1ccc2ncc3ccc(=O)n(-c4ccc(C(=O)N5CCOCC5)cc4)c3c2c1 [Compound 135],100,–,–
CC(C)(C)c1ccc(-c2ccc3ncc4ccc(=O)n(-c5ccc(C(=O)N6CCOCC6)cc5)c4c3c2)cc1 [Compound 196],100,–,–
COc1cc(C(=O)NCCN2CCN(C)CC2)ccc1-n1c(=O)ccc2cnc3ccc(-c4ccc(Cl)cc4)cc3c21 [Compound 252],–,–,EC50 [2]: 100 µM
CN(C)Cc1ccc(-c2ccc3ncc4ccc(=O)n(-c5ccc6c(c5)C(=O)N(C)C6=O)c4c3c2)cc1 [Compound 352],–,100,–
CC(C)(C)OC(=O)CN1Cc2cc(-n3c(=O)ccc4cnc5ccc(-c6ccc(Cl)cc6)cc5c43)ccc2C1=O [Compound 364],–,100,–
